Experimental data taken from PMC5406781.
No constants are given. Whether binding was seen depends on the method and setting. Some entries that bind do so weakly or less than the wild type. Tags and fused reporters may be left off the sequences shown.

Amino acid sequences for entries named in this document (tags omitted).
UniProt Q1D2S1: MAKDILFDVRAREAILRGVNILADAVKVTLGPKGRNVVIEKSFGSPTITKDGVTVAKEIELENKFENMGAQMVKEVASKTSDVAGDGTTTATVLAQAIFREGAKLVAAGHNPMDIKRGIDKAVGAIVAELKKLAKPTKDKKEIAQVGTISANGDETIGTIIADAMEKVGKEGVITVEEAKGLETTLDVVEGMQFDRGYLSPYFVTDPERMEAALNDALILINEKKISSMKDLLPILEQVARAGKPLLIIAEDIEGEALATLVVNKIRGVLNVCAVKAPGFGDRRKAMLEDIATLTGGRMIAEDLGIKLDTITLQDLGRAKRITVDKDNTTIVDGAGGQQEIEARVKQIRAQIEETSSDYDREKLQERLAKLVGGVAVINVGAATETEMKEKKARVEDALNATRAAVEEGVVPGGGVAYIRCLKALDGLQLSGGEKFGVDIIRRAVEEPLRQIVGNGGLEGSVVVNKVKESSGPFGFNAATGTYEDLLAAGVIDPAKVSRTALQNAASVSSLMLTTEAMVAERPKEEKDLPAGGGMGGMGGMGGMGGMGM
UniProt Q1D3Y5: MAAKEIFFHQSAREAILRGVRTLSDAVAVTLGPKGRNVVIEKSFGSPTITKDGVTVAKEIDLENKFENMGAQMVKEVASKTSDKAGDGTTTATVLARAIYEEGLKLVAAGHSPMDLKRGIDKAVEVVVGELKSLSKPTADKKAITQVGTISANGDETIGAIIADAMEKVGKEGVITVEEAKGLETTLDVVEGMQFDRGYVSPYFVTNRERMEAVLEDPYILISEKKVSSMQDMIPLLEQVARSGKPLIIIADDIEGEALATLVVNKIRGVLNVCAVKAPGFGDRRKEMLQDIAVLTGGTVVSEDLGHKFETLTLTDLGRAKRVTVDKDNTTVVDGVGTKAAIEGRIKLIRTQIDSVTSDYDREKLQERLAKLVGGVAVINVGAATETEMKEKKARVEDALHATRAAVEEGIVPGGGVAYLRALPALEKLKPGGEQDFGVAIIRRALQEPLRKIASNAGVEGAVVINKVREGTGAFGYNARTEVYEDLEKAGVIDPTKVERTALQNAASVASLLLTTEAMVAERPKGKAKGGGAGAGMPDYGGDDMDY

Tests used:
[1] = target: Myxococcus xanthus DK1622 GroEL1 (Myxococcus xanthus DK1622) (UniProt Q1D2S1); assay: native gel or EMSA; native PAGE (no SDS or mercaptoethanol, run in ice-water) of extracts of E. coli BL21(DE3) cells expressing GroEL1, GroEL2 or GroES alone, or GroEL1/GroEL2 co-expressed with GroES
[2] = target: Myxococcus xanthus DK1622 GroEL2 (Myxococcus xanthus DK1622) (UniProt Q1D3Y5); assay: as above

B1: Myxococcus xanthus DK1622 GroES without His-tag (protein, UniProt Q1D2S2 1-96)
chain: MKIRPLQDRLIVKRVAEENKTKGGLFIPDTAKEKPLEGKVIAVGNGKVQEDGKVRPLDIKAGDTILFSKYAGTEIKLDGEEHLILREEDVLGVIEK
[1]
  binding: binds
[2]
  binding: binds
